PubChem BioAssay AID1508588, Peter MacCallum Cancer Centre, 2020
Purpose: 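Knock-downs boosting vemurafenib effects on melanoma cell growth or lactate release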 (primary screen). System: human WM266.4 melanoma cells (BRAF V600 mutant). Reagent: siRNA pool against human genes, 40 nM. Duration: 96 h from transfection to read-out. Challenge: vemurafenib 300 nM (about IC25), added 48 h after transfection, for 48 h; comparison arm got DMSO vehicle only. Measurement: 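Cell gain (DAPI nuclei at end minus before drug, mean of two replicates) and medium lactate by absorbance per cell, both as ratio to non-targeting siRNA, also grouped into fold-change classes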. Reading the numbers: cell gain with vemurafenib: higher = more cell gain than with non-targeting siRNA; lactate per cell with vemurafenib: higher = more lactate made per cell. Call rule: 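Enhancement is called by pairing each knock-down's vehicle-arm and drug-arm fold-change classes for viability or glycolysis; which class combinations qualify is not given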. Calls: active = enhances vemurafenib effect; inactive = no enhancement seen.
The whole screen tested about 18,000 reagents; this is a part drawn at random. 790 of all reagents (4.4%) were called active. 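Calls rest on a combination of fold-change classes in drug and vehicle arms, not all shown here.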 Entries without a mark were called inactive.

{"gene": "TP53I13", "cell gain with vemurafenib": 0.55, "lactate per cell with vemurafenib": 1.29}
{"gene": "SRCAP", "cell gain with vemurafenib": 0.2, "lactate per cell with vemurafenib": 1.89}
{"gene": "NDFIP2", "cell gain with vemurafenib": 0.72, "lactate per cell with vemurafenib": 0.8}
{"gene": "SLC13A3", "cell gain with vemurafenib": 0.98, "lactate per cell with vemurafenib": 0.6}
{"gene": "SPATA9", "cell gain with vemurafenib": 0.51, "lactate per cell with vemurafenib": 0.33}
{"gene": "EPB41L1", "cell gain with vemurafenib": 0.3, "lactate per cell with vemurafenib": 1.12}
{"gene": "SKIC3", "cell gain with vemurafenib": "0.84 (active)", "lactate per cell with vemurafenib": 0.11}

Ordered by “lactate per cell with vemurafenib” (lowest first): 2 of the entries above
{"gene": "NDFIP2", "cell gain with vemurafenib": 0.72, "lactate per cell with vemurafenib": 0.8}
{"gene": "SRCAP", "cell gain with vemurafenib": 0.2, "lactate per cell with vemurafenib": 1.89}

Next records follow.
{"gene": "PAPOLB", "cell gain with vemurafenib": 0.02, "lactate per cell with vemurafenib": 2.06}
{"gene": "ASPRV1", "cell gain with vemurafenib": 0.82, "lactate per cell with vemurafenib": 1}
{"gene": "FARSA", "cell gain with vemurafenib": 0.98, "lactate per cell with vemurafenib": 0.66}
{"gene": "ITGAD", "cell gain with vemurafenib": 0.49, "lactate per cell with vemurafenib": 1.41}
{"gene": "MC4R", "cell gain with vemurafenib": 0.2, "lactate per cell with vemurafenib": 0.58}
{"gene": "MRRF", "cell gain with vemurafenib": 0.77, "lactate per cell with vemurafenib": 0.88}
{"gene": "CCDC102B", "cell gain with vemurafenib": 0.43, "lactate per cell with vemurafenib": 1.66}
{"gene": "CHD9", "cell gain with vemurafenib": 0.41, "lactate per cell with vemurafenib": 0.52}
{"gene": "R3HDM2", "cell gain with vemurafenib": 0.68, "lactate per cell with vemurafenib": 0.56}
